Data as given in PubChem BioAssay AID602196 (INSERM, 2012)

- Screen: 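Modifiers of cisplatin sensitivity in A549 cells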
- Cells: human A549 lung cancer cells
- Reagent: siRNA pair against human genes
- Timing: 48 h transfection before cisplatin; time from cisplatin to read-out not stated
- Challenge: cisplatin at a dose killing half of control-siRNA cells; exact dose and duration not given
- Measurement: 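Cisplatin cell death as a shift from the 50% death seen with control siRNA; siRNAs toxic or growth-blocking alone scored 0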
- Reading the numbers: two-siRNA summed score (-2 to +2): higher = both siRNAs protect from cisplatin killing; -2 means both sensitise; mean protection from cisplatin (shift in death) and protection from cisplatin (shift in death), siRNA C and protection from cisplatin (shift in death), siRNA D: higher = protection from cisplatin killing
- Active means: 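siRNAs harmful alone (LDH or WST-1) get 0; others get +1 for less and -1 for more cisplatin killing; genes are active when the two siRNAs give the same sign, summing to ±2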
- Calls: active = both siRNAs shift cisplatin killing the same way; inactive = no consistent shift, or siRNA harmful alone
Shown is an unselected part of about 23,000 deposited reagents. 455 of all reagents (2%) were called active. 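Active includes both protection and sensitisation; some change values fall well beyond the stated -50 to +50 range.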 Entries without a mark were called inactive. Not stated in the record: the amount of reagent.

target,two-siRNA summed score (-2 to +2),mean protection from cisplatin (shift in death) (%),"protection from cisplatin (shift in death), siRNA C (%)","protection from cisplatin (shift in death), siRNA D (%)"
LOC439919,0,14.4,19.1,9.8
CCNG1,0,-20.4,-28.2,-12.7
MUC4,-1,-14.8,-21.6,-8
LRRC41,1,8.7,14.3,3.1
ZNF703,0,2.1,5.2,-1
CYP2D6,0,-8.7,-12.8,-4.6
TRMT13,-1,-5.9,1.7,-13.4
ZNF473CR,0,8.3,6.5,10
PDPR,1,8.4,18.9,-2.1
GJC1,0,5.5,11.9,-0.9
CHRNA4,-2 (active),-13.7,-10.9,-16.5
LOC401545,0,21.7,24.5,19
KIT,0,0.9,2.7,-0.9
MPG,-1,-13.6,-11.4,-15.8
CKAP2L,0,-5.7,-7.5,-3.9
LOC399920,0,1.4,12.4,-9.7
LAD1,1,23.2,14.8,31.6
DOCK8,0,-0.9,4.6,-6.4
C1orf54,1,3.7,-2.2,9.5
H1-10,0,-1.6,2.2,-5.4
SCAMP1,0,17.5,18.3,16.6
CNR2,0,15.3,40.4,-9.7
METTL14,0,2,10.4,-6.4
SLC25A30,-1,-6.2,3.8,-16.2
ZNF800,0,25.5,39.9,11
TEP1,0,5.2,-2,12.3
LOC387846,0,4,-1.8,9.7
LOC441328,0,2.1,-6.5,10.7
TPST2,1,15.3,21.1,9.5
MPP4,0,5.4,6.5,4.3
DYRK1B,0,23.5,36.5,10.5
LITAF,0,-1.5,-4.8,1.8
BEST4,1,6.5,-8,20.9
SAP18,-1,-2.8,8.7,-14.3
HERC1,0,-1.4,3,-5.8
C8orf82,1,17.4,5,29.9
LOC402152,0,2.1,5.1,-1
CALM3,-1,1,13.4,-11.5
LOC388340,0,-9,-17.5,-0.6
